# According to PubChem BioAssay AID1688 (National Center for Advancing Translational Sciences (NCATS), 2009):
# Among all 220,000 compounds or so, about 2,400 (1.1%) were called active. Inconclusive results, whose numbers are uncertain, are shown with a selection of clear calls. The call rests on the fitted dose curve; in most records, active means well fitted inhibition curve with a large enough effect; inconclusive means small, poorly fitted or top-dose-only effect, or effect the other way; inactive means no such curve, though single readings can be large or run the other way. Potencies beside an inconclusive call are fits to weak or partial responses and may not hold up.
# Test: qHTS Multiplex Assay to Identify Dual Action Probes in a Cell Model of Huntington: Aggregate Formation (GFP); further: nearly all actives have a fitted effect of over 60% in size
# Settings: PC12 HttQ103-GFP aggregates, Acumen cytometry, 40 h; activity change, negative = inhibition: at 46.1 µM (top of the series) unless noted
# Method in brief: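 Ecdysone-promoter PC12 model expressing HTT exon 1 Q103 fused to GFP, induced by tebufenozide at 100 nM final. Compounds titrated; aggregates sized 1–25 µm scored on a 488 nm laser cytometer.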
# On the % scale 0 is the no-effect control and ±100 the full control effect; potency means the concentration at half of the fitted maximal effect.
Compound,Potency,"activity change, negative = inhibition"
COc1ccc(Nc2nc(C)c(-c3ccccc3)s2)cc1,"inconclusive: 35.5 µM [inhibitor, single point]",–
Cc1ccc(N=CC=C2OC(C)(C)C(C)(C)O2)c(C)c1,"inconclusive: 11.2 µM [activator, partial curve]",–
COc1cc2c(cc1OC)C(c1ccc(-c3ccccc3Cl)o1)=NCC2,"inconclusive: 15.8 µM [inhibitor, single point]",–
C/C(CCc1ccc2c(c1)OCO2)=N\N=C(/N)SC1CC(=O)N(c2ccccc2F)C1=O (configuration not stated),"inconclusive: 11.2 µM [inhibitor, single point]",–
CC1=C(C(=O)OCC(C)C)C(c2ccccc2Cl)NC(=O)N1C (configuration not stated),"inconclusive: 12.6 µM [inhibitor, partial curve]",–
CCCCC(CC)C(=O)N1CCN(C(=O)c2ccco2)CC1 (configuration not stated),–,inactive: -9.86%
COc1ccc(C2C(C#N)=C(N)Oc3c2c(-c2ccccc2)nn3-c2ccccc2)c(OC)c1OC (configuration not stated),"inconclusive: 35.5 µM [inhibitor, single point]",–
CCOC(=O)NC(Nc1ccc(S(N)(=O)=O)cc1)(C(=O)OCC)C(F)(F)F (configuration not stated),"inconclusive: 35.5 µM [inhibitor, single point]",–
CCCCSC(=S)NC1CCS(=O)(=O)C1 (configuration not stated),"inconclusive: 35.5 µM [inhibitor, single point]",–
COC(=O)c1c(C)oc2ccc(OC(=O)c3cccs3)cc12,"inconclusive: 10 µM [inhibitor, partial curve]",–
O=C(/C=C/Nc1ccccc1F)c1cccs1,–,inactive: -15.7%
O=C(Nc1ccccc1)Nc1ccc(S(=O)(=O)N2CCCCC2)cc1,active: 12.6 µM,–
CCn1ncc(CNC(=O)CCCSc2nc(-c3ccco3)cc(C(F)(F)F)n2)c1C,"inconclusive: 35.5 µM [inhibitor, single point]",–
CN(C)c1ccc(NC(=O)CN2CCN(S(=O)(=O)c3cc(Cl)ccc3Cl)CC2)cc1,–,inactive: 2.38%
Cc1ccccc1NC(=S)NCc1ccc2c(c1)cc(C)n2C,"inconclusive: 12.6 µM [activator, single point]",–
O=S(=O)(c1ccc(Oc2ccc(Br)cc2)cc1)N1CCOCC1,"inconclusive: 35.5 µM [inhibitor, single point]",–
CC#C[C@]1(O)CC[C@H]2[C@@H]3CCC4=CC(=O)CCC4=C3[C@@H](c3ccc(N(C)C)cc3)C[C@@]21C,"inconclusive: 35.5 µM [inhibitor, single point]",–
COC(=O)c1ccc(NC(=O)Nc2ccc(F)cc2F)cc1,–,inactive: 3.73%
O=S(=O)(Nc1nc2ccccc2nc1Cl)c1ccc(Br)cc1,active: 10 µM,–
Cc1ccc(C(=O)N(CCCN(C)C)c2nc3ccc(Cl)cc3s2)cc1C,"inconclusive: 35.5 µM [inhibitor, single point]",–
O=C(NC1CCCCC1)C(c1ccc2ncccc2c1)N(Cc1ccc2c(c1)OCO2)C(=O)c1cccs1 (configuration not stated),–,inactive: 17.1%

Compound,Potency,"activity change, negative = inhibition"
Fc1ccc(-c2cc(-c3nnc4n3CCCCC4)c3ccccc3n2)cc1,"inconclusive: 25.1 µM [inhibitor, single point]",–
CC(C)n1c(-c2ccco2)csc1=Nc1cccnc1,"inconclusive: 10 µM [inhibitor, partial curve]",–
O=C(CNC(=O)c1ccc(F)cc1)N/N=C/c1ccc(O)c([N+](=O)[O-])c1,"inconclusive: 35.5 µM [inhibitor, single point]",–
CCOc1ccccc1N1CCN(C(=O)Nc2ccc(Cl)c(Cl)c2)CC1,"inconclusive: 31.6 µM [inhibitor, single point]",–
COc1ccc(CSCCc2n[nH]c(=S)n2-c2ccccc2)cc1C,"inconclusive: 22.4 µM [inhibitor, single point]",–
CCC(CC)NC(=O)COC(=O)c1cccc(C)c1O,–,inactive: -3.66% [at 9.22 µM]
O=C(C(c1ccccc1)c1ccccc1)N1CCN(CCN2C(=O)c3cccc4cccc(c34)C2=O)CC1,"inconclusive: 28.2 µM [inhibitor, partial curve]",–
Cc1nc2ccccc2nc1CN1CCN(Cc2ccc(F)c(F)c2)C(CCO)C1 (configuration not stated),"inconclusive: 17.8 µM [activator, partial curve]",–
CC(C)OCCCNS(=O)(=O)c1ccc2c(c1)oc(=O)n2C,"inconclusive: 3.16 µM [activator, partial curve]",–
Cc1ccc2c(C(=O)N3CCN(c4ccccc4)CC3)cc(-c3cccnc3)nc2c1C,active: 10 µM,–
COCCn1c(N)c(C(=O)NCc2cccs2)c2nc3ccccc3nc21,"inconclusive: 7.94 µM [inhibitor, partial curve]",–
CC(C)NC(=O)c1ccccc1NC(=O)/C=C/c1cccc([N+](=O)[O-])c1,"inconclusive: 35.5 µM [inhibitor, single point]",–
CC(OC(=O)c1cccnc1Cl)C(=O)Nc1ccc(S(N)(=O)=O)cc1 (configuration not stated),"inconclusive: 35.5 µM [inhibitor, single point]",–
COC(=O)c1c(NC(=O)C2(C)Cc3ccccc3C(=O)O2)sc2c1CCCC2 (configuration not stated),"inconclusive: 14.1 µM [inhibitor, single point]",–
COc1ccc(C2SCCN2C(=S)Nc2ccc(Cl)cc2)cc1 (configuration not stated),"inconclusive: 7.08 µM [inhibitor, partial curve]",–
COC(=O)c1cc(NC(=O)c2cccc(C(F)(F)F)c2)c(=O)oc1C/C=N/OCc1cccc(Cl)c1Cl,–,inactive: -12.7%
O=C1C=CC(=O)N1c1cccc(-c2ccccc2)c1,"inconclusive: 5.62 µM [inhibitor, single point]",–
Cc1nn(Cc2c(Cl)cccc2Cl)c(C)c1NC(=O)c1cnn2c(C(F)F)cc(-c3ccccc3)nc12,"inconclusive: 1.12 µM [inhibitor, single point]",–
O=C(NC12CC3CC(CC(C3)C1)C2)c1ccccc1O,"inconclusive: 35.5 µM [inhibitor, single point]",–
CCOC(=O)c1cnc(-n2nc(C)cc2C)nc1Nc1ccc(N(C)C)cc1,"inconclusive: 35.5 µM [inhibitor, single point]",–
N#C/C=C\Oc1ccc(Cl)cc1N,"inconclusive: 2.51 µM [activator, full curve]",–

# Sorted by formula weight (largest number first): part of the list above
Compound,Potency,"activity change, negative = inhibition"
Cc1nc2ccccc2nc1CN1CCN(Cc2ccc(F)c(F)c2)C(CCO)C1 (configuration not stated),"inconclusive: 17.8 µM [activator, partial curve]",–
CC(OC(=O)c1cccnc1Cl)C(=O)Nc1ccc(S(N)(=O)=O)cc1 (configuration not stated),"inconclusive: 35.5 µM [inhibitor, single point]",–
CC(C)n1c(-c2ccco2)csc1=Nc1cccnc1,"inconclusive: 10 µM [inhibitor, partial curve]",–
